Assay [1] concerns the target full-length RIP1 as yeast two-hybrid fusion (AD-RIP1 prey; BK-RIP1 bait) (rice) (UniProt B7ELI9). Kind of assay: two-hybrid; direct bait-prey pairs: baits in pGBKT7 (GAL4 DNA-binding domain), preys in pGADT7, co-transformed into S. cerevisiae AH109, spotted on selective media with X-gal.
The target in assay [2] is T1, RMD P3 fragment (aa 338-821) fused to the GAL4 DNA-binding domain (BK-P3) (rice) (UniProt Q84ZL0).
T1 sequence: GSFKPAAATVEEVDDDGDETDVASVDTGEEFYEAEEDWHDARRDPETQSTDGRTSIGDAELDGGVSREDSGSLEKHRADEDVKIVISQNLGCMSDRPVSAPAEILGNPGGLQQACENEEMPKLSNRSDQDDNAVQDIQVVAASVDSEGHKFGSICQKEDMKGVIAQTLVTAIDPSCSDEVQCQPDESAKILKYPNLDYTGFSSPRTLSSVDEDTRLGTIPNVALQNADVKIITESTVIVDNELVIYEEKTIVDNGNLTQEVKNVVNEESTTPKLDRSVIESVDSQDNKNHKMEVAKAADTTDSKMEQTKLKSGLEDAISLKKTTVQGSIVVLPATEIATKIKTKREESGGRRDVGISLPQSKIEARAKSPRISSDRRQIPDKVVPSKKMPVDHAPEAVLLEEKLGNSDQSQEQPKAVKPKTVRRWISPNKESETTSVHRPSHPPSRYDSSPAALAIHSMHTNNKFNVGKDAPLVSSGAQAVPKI
The description is as above.

Amino acid sequences for entries named in this document (tags omitted). A change or cut given only in a name is not applied to a line headed by its entry.
UniProt B7ELI9: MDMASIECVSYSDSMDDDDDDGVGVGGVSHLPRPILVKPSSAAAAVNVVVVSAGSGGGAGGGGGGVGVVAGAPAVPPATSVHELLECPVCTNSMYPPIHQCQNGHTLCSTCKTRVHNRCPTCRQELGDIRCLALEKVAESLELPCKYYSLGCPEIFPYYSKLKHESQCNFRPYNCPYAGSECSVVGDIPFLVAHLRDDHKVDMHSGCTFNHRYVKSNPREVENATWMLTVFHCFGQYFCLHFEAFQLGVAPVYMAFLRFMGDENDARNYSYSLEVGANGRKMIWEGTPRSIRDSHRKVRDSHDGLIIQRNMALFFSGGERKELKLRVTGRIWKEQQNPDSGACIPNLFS
UniProt Q60EU0: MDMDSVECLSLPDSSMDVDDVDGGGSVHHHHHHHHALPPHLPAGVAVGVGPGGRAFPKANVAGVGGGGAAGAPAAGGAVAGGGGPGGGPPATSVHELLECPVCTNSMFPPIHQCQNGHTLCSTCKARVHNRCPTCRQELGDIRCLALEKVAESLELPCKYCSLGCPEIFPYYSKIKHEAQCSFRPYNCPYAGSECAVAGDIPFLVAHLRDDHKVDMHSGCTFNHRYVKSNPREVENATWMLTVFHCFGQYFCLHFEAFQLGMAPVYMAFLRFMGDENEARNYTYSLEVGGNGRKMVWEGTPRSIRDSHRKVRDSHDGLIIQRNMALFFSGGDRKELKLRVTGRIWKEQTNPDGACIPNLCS
UniProt B7F5A8: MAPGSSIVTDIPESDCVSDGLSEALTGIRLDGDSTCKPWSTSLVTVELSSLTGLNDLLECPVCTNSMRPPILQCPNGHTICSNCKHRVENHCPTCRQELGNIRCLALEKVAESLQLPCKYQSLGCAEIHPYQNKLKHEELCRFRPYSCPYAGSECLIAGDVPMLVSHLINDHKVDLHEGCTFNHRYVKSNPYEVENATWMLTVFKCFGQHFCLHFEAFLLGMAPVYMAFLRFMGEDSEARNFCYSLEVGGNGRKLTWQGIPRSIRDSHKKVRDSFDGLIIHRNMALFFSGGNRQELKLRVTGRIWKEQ
UniProt B7F029: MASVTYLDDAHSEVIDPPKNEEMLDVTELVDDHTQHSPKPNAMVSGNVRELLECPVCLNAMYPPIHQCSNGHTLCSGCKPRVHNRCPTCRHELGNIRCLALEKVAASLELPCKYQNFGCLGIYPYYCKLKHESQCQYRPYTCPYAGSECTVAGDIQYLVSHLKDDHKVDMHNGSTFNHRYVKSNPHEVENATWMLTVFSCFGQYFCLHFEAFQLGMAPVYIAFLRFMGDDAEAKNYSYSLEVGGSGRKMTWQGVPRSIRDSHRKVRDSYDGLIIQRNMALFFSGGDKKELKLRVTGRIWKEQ

The target in assay [3] is T2, RMD N-terminal P2 fragment (821 amino acids) fused to the GAL4 DNA-binding domain (BK-P2) (rice) (UniProt Q84ZL0).
T2 sequence: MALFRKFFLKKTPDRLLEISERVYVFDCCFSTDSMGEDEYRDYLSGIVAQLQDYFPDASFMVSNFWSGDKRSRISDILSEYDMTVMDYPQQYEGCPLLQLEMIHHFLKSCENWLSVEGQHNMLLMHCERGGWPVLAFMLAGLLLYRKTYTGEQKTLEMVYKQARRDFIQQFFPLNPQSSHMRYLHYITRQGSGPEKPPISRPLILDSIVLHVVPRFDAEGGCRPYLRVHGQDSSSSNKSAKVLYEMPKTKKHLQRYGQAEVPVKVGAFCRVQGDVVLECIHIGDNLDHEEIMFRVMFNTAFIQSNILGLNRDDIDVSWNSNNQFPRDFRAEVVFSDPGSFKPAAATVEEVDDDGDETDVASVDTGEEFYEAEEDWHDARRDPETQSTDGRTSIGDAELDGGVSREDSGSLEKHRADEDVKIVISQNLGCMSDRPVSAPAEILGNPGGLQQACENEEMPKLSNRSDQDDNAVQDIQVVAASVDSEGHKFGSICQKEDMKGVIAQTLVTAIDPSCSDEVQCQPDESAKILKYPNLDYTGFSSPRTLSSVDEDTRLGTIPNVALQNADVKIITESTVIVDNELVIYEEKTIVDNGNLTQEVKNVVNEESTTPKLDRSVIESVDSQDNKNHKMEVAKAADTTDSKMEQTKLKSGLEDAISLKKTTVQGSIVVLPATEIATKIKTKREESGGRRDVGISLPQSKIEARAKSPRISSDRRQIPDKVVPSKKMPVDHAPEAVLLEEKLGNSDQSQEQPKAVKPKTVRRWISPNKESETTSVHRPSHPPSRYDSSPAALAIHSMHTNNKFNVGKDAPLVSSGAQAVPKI
The description is as above.

For assay [4], the target named is full-length RMD fused to cYFP (RMD-cYFP), in tobacco leaves (rice) (UniProt Q84ZL0). The assay is described as follows: split reporter; BiFC with nYFP and cYFP fusions co-transformed into Nicotiana benthamiana leaves by Agrobacterium; confocal microscopy after 24-36 h in the dark.
Assay [5] concerns the target full-length RIP2 fused to a half of YFP, in tobacco leaves (rice) (UniProt Q60EU0). The description is as above.
The target in assay [6] is T3, full-length RIP5 fused to a half of YFP, in tobacco leaves (rice) (UniProt Q10L91).
T3 sequence: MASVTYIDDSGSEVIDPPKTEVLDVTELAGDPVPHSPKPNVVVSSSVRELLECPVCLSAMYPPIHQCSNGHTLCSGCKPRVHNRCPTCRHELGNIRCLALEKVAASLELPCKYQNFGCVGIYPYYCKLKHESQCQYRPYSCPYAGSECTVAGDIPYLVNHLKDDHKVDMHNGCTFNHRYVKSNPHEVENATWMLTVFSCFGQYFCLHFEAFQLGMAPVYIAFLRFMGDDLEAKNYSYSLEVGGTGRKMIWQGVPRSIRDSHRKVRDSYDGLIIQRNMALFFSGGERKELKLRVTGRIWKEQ
The description is as above.

Assay [7] concerns the target full-length RIP4 fused to a half of YFP, in tobacco leaves (rice) (UniProt B7F5A8). The description is as above.
Assay [8] shares this target. The assay is described as above. This is another data set of the same source.
Assay [9] addresses full-length RIP2 fused to a half of YFP, in tobacco leaves (rice) (UniProt Q60EU0). The description is as above. This is another data set of the same source.

For 11 molecules, binding results are on record in PMC8786996.

Where two headings read alike, the source gives them in different places. These are yes or no findings as the source states them, for the method shown. A result given as binding can be weak or reduced; the word gives no strength. For some assays here: Where a sequence is shown, tags or fusion partners need not be part of it. For some assays here: Binding seen in cells or lysates may run through a third protein.

For the molecule “SIAH domain of RIP1 fused to the GAL4 activation domain (AD-SIAH1) (from UniProt B7ELI9) (domain or fragment)”, the binding result in [1] and in [2] was “binds” in each case.
Regarding “SIAH domain of RIP2 fused to the GAL4 activation domain (AD-SIAH2) (from UniProt Q60EU0) (domain or fragment)”, the binding result in assay [1] was “binds”.
The same measure, in the same setting: the value for “SIAH domain of RIP3 fused to the GAL4 activation domain (AD-SIAH3) (from UniProt Q5NAX7) (domain or fragment)” was “binds”; that for “SIAH domain of RIP4 fused to the GAL4 activation domain (AD-SIAH4) (from UniProt B7F5A8) (domain or fragment)” was “binds”.
Consider “SIAH domain of RIP5 fused to the GAL4 activation domain (AD-SIAH5) (rice) (domain or fragment)”, for which, in assay [3], the binding result is “binds”.
In the case of “SIAH domain of RIP6 fused to the GAL4 activation domain (AD-SIAH6) (from UniProt B7F029) (domain or fragment)”, the binding entry in [1] is given as “binds”.
Consider “full-length RIP1 as yeast two-hybrid fusion (AD-RIP1 prey; BK-RIP1 bait) (from UniProt B7ELI9)”, for which, in assay [2], the binding result was “binds”.
With “full-length RIP2 fused to a half of YFP, in tobacco leaves (from UniProt Q60EU0)”, in [4], the binding result is “binds”.
As to “full-length RIP4 fused to a half of YFP, in tobacco leaves (from UniProt B7F5A8)”, the binding entry in assay [4] and in [5] was “binds” throughout.
On to “full-length RIP6 fused to a half of YFP, in tobacco leaves (from UniProt B7F029)”, for which the binding result in assay [4], in assay [6], in [7] and in assay [5] was “binds” throughout.

B1: full-length RIP5 fused to a half of YFP, in tobacco leaves (protein, UniProt Q10L91 1-301)
chain: T3 sequence
Consider B1, for which the binding result in assay [8] and in assay [9] was “binds” each time.
